# Assay: Loss of drug from donor hole of Teflon disc placed on stratum corneum
# Format: in vitro ADME
# Details: drug in PBS, 2 mm hole, human SC, 24 hours contact, liquid scintillation counting
# Procedure: The following experiments were performed to assess the usefulness of a method, which determines the loss of a test substance from a formulation over time. Experiments were performed to assess whether this method can be used for estimation of skin permeability to drugs. For these studies, phosphate buffered saline was used as a model formulation. […] Ten holes were drilled into the disc and each hole was about 2 mm wide. The disc was then placed on the SC prepared from human skin. Solutions of nine different drugs in PBS were placed in various holes. The concentration of drugs in the solutions were measured at time zero. The drugs were allowed to remain in contact with the skin for 24 hours. Samples were taken from the holes at the end of 24 hours and then analyzed using a liquid scintillation counter. The amount of drug lost from the donor hole was calculated. Permeability measurements of the same drugs were performed using conventional methods that use macroscopic diffusion cells.
structure (smiles),measurement,value
CCN(CC)CC(=O)Nc1c(C)cccc1C [Lidocaine],% Drug Lost from the Hole,20%

# — US20040023841A1, “Combinatorial method for rapid screening of drug delivery formulations” (priority 2003, published 2004)
